In the supplement of paper PMC12067093, “Discovery and optimisation of a covalent ligand for TRIM25 and its application to targeted protein ubiquitination” (Chemical Science, 2025):
Some of the results follow.

The chains behind the UniProt entries cited, without tags or fusion partners. Where a name states a change or a piece, a line headed by the entry shows the natural chain unless it says otherwise.
UniProt Q05655: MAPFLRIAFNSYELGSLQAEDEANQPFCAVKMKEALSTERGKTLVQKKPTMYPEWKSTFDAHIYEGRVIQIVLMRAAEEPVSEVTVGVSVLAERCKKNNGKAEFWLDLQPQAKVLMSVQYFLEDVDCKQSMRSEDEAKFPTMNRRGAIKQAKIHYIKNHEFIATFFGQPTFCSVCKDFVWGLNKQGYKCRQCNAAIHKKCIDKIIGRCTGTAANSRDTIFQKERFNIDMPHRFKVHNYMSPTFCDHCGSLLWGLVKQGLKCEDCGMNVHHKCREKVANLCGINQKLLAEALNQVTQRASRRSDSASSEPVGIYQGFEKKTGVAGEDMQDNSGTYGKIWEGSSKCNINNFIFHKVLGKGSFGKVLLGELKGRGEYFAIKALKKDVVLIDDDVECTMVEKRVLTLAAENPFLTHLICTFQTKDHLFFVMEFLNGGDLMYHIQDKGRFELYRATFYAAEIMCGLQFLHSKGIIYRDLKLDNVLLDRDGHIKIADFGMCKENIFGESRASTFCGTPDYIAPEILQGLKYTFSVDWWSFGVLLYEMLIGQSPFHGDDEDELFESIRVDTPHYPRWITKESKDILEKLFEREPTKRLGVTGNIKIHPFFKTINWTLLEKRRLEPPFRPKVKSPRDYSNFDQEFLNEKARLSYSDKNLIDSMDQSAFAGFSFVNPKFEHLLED
UniProt O75569: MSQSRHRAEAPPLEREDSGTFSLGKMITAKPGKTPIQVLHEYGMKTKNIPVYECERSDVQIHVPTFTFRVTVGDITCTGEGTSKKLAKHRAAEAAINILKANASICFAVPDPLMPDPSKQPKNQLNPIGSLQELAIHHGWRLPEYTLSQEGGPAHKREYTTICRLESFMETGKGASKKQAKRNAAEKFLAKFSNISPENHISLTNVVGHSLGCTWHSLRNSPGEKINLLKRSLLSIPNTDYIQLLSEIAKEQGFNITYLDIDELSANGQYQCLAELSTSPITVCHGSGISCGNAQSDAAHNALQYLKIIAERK
UniProt Q9BZL6: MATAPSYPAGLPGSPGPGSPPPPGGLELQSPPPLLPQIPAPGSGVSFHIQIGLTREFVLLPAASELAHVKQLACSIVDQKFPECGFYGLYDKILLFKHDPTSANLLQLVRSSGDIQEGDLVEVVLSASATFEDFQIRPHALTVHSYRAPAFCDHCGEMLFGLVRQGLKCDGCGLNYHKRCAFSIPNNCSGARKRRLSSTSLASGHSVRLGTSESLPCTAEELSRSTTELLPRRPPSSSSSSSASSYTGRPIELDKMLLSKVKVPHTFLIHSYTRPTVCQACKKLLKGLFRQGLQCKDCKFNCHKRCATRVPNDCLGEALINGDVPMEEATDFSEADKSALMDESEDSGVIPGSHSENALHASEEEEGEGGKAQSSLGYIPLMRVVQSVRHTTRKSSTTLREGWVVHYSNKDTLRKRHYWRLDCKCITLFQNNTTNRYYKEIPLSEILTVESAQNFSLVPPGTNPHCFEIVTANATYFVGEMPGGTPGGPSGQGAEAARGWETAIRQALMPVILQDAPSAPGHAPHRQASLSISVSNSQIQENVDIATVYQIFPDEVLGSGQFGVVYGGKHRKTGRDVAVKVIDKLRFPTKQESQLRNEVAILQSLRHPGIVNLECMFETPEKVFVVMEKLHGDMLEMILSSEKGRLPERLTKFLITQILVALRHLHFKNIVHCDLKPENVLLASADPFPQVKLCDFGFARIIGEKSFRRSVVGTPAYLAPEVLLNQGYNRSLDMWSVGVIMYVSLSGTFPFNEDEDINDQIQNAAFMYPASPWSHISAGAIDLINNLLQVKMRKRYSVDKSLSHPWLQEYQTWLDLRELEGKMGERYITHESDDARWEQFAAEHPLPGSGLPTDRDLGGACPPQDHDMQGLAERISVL
UniProt P05771, whole entry, looked up: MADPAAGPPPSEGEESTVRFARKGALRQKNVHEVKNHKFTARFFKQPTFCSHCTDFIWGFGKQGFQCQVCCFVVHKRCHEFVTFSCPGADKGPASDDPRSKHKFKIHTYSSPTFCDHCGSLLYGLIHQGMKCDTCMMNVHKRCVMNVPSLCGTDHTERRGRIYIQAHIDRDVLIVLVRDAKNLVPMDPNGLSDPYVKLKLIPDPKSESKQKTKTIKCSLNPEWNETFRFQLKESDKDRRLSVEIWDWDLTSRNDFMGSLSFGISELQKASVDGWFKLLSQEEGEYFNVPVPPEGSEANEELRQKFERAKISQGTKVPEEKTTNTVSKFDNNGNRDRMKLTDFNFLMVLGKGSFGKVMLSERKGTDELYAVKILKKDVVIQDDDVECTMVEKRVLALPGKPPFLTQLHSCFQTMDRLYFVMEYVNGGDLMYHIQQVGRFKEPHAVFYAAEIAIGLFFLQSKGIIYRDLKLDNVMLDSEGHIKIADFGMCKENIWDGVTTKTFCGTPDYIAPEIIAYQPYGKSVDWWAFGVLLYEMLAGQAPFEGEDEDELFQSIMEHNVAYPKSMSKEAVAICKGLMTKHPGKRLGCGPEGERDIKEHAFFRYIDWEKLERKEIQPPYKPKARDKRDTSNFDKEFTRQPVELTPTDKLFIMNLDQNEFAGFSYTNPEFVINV
UniProt P10644, whole entry, looked up: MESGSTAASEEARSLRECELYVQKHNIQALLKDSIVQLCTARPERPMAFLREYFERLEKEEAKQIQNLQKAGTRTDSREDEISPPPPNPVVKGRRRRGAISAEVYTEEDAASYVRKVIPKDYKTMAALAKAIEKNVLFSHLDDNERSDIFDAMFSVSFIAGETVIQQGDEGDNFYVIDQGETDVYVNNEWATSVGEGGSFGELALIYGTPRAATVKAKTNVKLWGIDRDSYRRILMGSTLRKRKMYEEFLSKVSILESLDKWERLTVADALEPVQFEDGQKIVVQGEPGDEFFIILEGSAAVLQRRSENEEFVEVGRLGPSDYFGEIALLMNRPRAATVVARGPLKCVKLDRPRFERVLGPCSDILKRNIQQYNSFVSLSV
UniProt O94906: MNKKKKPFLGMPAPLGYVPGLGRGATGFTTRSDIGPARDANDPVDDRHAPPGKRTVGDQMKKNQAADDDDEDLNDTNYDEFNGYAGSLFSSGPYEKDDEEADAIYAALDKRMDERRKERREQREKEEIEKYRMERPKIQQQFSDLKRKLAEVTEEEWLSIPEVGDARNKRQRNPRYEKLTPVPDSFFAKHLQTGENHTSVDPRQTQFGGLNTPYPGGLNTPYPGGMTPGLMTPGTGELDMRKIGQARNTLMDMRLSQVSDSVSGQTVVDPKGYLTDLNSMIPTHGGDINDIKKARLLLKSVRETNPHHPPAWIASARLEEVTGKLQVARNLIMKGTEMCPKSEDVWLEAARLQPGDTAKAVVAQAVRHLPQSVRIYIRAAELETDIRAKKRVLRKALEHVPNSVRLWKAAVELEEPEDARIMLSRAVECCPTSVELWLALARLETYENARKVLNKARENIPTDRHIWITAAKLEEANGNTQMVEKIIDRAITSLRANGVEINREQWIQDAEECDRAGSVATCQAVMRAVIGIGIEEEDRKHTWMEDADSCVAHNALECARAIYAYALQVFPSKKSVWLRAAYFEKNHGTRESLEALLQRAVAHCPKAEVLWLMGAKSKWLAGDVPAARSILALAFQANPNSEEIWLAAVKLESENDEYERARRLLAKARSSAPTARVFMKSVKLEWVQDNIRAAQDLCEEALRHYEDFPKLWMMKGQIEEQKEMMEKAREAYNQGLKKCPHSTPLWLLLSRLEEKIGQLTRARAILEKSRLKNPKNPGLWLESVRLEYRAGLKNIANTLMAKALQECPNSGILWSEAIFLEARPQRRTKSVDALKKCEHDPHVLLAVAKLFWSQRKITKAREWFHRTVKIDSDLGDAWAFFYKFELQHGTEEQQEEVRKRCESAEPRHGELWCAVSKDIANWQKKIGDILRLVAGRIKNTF
UniProt O43172: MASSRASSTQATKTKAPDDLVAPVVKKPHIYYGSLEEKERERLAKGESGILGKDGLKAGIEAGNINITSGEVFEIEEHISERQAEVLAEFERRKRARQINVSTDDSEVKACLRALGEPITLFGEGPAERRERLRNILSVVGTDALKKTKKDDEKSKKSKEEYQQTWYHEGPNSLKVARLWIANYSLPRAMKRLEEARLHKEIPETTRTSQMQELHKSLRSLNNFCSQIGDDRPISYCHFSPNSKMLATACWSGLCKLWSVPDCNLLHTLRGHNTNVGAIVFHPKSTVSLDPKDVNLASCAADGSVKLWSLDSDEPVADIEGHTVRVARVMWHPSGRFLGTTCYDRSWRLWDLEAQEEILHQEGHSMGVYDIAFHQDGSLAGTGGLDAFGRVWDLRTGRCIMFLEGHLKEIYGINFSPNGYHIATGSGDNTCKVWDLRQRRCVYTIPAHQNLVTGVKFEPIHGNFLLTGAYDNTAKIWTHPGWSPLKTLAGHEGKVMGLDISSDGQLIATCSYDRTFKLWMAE
UniProt Q5THK1: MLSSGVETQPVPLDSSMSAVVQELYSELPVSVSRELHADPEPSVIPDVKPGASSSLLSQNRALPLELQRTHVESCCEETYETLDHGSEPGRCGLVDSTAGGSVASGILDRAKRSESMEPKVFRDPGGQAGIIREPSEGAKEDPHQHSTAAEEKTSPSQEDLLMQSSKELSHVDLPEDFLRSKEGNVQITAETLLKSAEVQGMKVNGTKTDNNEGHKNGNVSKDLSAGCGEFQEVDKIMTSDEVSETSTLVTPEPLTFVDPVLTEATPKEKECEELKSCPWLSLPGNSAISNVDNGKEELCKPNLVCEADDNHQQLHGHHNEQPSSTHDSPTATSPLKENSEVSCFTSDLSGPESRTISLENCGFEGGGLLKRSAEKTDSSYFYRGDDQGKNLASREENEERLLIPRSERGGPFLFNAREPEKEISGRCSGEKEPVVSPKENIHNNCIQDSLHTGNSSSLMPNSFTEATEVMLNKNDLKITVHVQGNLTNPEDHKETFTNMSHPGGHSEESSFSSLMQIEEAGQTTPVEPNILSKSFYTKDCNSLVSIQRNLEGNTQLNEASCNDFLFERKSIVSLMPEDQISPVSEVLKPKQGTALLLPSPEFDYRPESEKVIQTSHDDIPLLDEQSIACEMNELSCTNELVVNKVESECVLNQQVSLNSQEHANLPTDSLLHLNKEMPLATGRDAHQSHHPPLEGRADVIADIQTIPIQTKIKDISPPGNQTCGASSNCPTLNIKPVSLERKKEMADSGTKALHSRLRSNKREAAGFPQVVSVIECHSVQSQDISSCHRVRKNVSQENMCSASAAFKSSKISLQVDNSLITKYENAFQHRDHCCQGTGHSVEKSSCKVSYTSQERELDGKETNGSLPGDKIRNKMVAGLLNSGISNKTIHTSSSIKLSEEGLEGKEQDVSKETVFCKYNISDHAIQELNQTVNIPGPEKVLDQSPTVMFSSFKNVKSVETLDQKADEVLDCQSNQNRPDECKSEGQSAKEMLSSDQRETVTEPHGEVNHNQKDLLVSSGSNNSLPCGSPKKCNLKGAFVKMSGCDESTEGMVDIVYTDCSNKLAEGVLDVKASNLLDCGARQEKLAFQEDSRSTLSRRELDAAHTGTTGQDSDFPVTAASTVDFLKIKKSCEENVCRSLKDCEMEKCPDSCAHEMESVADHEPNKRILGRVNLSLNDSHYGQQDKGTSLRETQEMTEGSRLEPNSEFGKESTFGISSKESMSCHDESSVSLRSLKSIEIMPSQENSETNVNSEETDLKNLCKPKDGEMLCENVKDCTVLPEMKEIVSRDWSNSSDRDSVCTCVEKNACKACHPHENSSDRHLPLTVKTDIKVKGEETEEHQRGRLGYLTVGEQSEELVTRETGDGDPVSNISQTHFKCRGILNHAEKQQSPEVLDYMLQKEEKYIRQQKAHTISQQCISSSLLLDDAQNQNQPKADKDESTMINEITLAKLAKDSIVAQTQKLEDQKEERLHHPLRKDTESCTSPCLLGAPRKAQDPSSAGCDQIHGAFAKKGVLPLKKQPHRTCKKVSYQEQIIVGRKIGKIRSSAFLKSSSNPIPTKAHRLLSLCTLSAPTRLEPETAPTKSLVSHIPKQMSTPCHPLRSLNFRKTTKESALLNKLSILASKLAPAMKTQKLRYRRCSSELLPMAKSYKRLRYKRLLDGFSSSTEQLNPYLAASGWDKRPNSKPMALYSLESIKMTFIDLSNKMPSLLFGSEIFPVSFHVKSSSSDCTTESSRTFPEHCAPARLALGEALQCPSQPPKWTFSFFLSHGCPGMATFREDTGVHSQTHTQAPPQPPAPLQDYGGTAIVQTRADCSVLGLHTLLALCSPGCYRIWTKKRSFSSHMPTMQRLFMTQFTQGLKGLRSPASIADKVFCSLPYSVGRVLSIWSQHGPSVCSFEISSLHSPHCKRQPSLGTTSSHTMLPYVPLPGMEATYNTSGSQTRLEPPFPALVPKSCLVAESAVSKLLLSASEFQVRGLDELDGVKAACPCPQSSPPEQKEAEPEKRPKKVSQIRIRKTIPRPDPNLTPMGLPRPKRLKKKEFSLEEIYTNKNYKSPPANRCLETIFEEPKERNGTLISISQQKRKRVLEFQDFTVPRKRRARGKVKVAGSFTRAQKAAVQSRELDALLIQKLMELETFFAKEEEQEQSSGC

Compound: CC1Cc2ccccc2N1C(=O)C1CCCN(C1)C(=O)CCl (mixture of isomers) [TRIM25 ligand 11 (diastereomer mixture)]
Test: probe-labelled cysteine peptide fold change vs DMSO (competition) (log2 fold change); higher = less target engagement (more negative = stronger competition)
Conditions: THP-1, incubation time: 4 h
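Further: competitive chemoproteomic profiling in live THP-1 cells with an iodoacetamide desthiobiotin (IA-DTB) probe, comparing probe-labelled peptide intensities in compound-treated cells against DMSO-treated controls.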

Row | Target | probe-labelled cysteine peptide fold change (10 µM) | probe-labelled cysteine peptide fold change (50 µM)
1 | PRKDC_P78527_457_MQLVCCR (UniProt P78527) | -0.115 | 0.268
2 | PRKDC_P78527_1791_RGSCVTQVGLLESVYEMFRK (UniProt P78527) | -0.289 | -0.165
3 | PRKCD_Q05655_172_NHEFIATFFGQPTFCSVCK (UniProt Q05655) | -0.042 | 0.0379
4 | PRKRA_O75569_213_FSNISPENHISLTNVVGHSLGCTWHSLR (UniProt O75569) | 0.0941 | -0.242
5 | PRKD2_Q9BZL6_861_DLGGACPPQDHDMQGLAER (UniProt Q9BZL6) | 0.135 | -0.132
6 | PRKCSH_P14314_77_DGSDEPGTAACPNGSFHCTNTGYK (UniProt P14314) | 0.111 | 0.0753
7 | PRKDC_P78527_2093_DPTVHDDVLELEMDELNRHECMAPLTALVK (UniProt P78527) | -0.0591 | -0.179
8 | PRKCB_P05771_70+71_QGFQCQVCCFVVHK (UniProt P05771) | 0.161 | 0.246
9 | PRKAR1A_P10644_362_VLGPCSDILKR (UniProt P10644) | -0.183 | -0.265
10 | PRMT3_O60678_363_GGSVYPDICTISLVAVSDVNK (UniProt O60678) | 0.0998 | 0.415
11 | PRTN3_P24158_56+72_GNPGSHFCGGTLIHPSFVLTAAHCLR (UniProt P24158) | 0.0297 | -0.216
12 | PRKDC_P78527_1127+1135_SLGTIQQCCDAIDHLCR (UniProt P78527) | -0.162 | -0.178
13 | PREX1_Q8TCU6_234_TVCSNINETK (UniProt Q8TCU6) | 0.00592 | 0.0556
14 | PRPF4B_Q13523_962_DLLADLIGCQR (UniProt Q13523) | -0.0904 | -0.155
15 | PRKCB_P05771_143+151_CVMNVPSLCGTDHTER (UniProt P05771) | 0.196 | 0.281
16 | PRKDC_P78527_1791_GSCVTQVGLLESVYEMFRK (UniProt P78527) | -0.179 | -0.152
17 | PRKDC_P78527_1499+1507_QCLPSLDLSCK (UniProt P78527) | 0.0818 | -0.0983
18 | PRPF6_O94906_430_AVECCPTSVELWLALAR (UniProt O94906) | -0.0518 | 0.198
19 | PRPF4_O43172_441_RCVYTIPAHQNLVTGVK (UniProt O43172) | -0.103 | 0.0371
20 | PRMT1_Q99873_226_IHWWENVYGFDMSCIK (UniProt Q99873) | 0.165 | 0.03

Three entries drawn at random from the list so far, as already listed:
Row | Target | probe-labelled cysteine peptide fold change (10 µM) | probe-labelled cysteine peptide fold change (50 µM)
5 | PRKD2_Q9BZL6_861_DLGGACPPQDHDMQGLAER (UniProt Q9BZL6) | 0.135 | -0.132
9 | PRKAR1A_P10644_362_VLGPCSDILKR (UniProt P10644) | -0.183 | -0.265
3 | PRKCD_Q05655_172_NHEFIATFFGQPTFCSVCK (UniProt Q05655) | -0.042 | 0.0379

(further entries)

Row | Target | probe-labelled cysteine peptide fold change (10 µM) | probe-labelled cysteine peptide fold change (50 µM)
21 | PREX1_Q8TCU6_572_EEAVALGVGLCNNGFMHHVLEK (UniProt Q8TCU6) | 0.0907 | -0.0123
22 | PRKRA_O75569_77_VTVGDITCTGEGTSKK (UniProt O75569) | -0.151 | -0.147
23 | PRKCA_P17252_406_VLALLDKPPFLTQLHSCFQTVDR (UniProt P17252) | 0.26 | -0.111
24 | PRPS2_P11908_226+230_DRVAILVDDMADTCGTICHAADK (UniProt P11908) | -0.14 | 0.32
25 | PRKCD_Q05655_172+175_NHEFIATFFGQPTFCSVCK (UniProt Q05655) | -0.0205 | -0.0302
26 | PRKCB_P05771_217_CSLNPEWNETFR (UniProt P05771) | -0.00427 | 0.0176
27 | PRMT5_O14744_22_DLNCVPEIADTLGAVAK (UniProt O14744) | 0.034 | -0.0764
28 | PRPF8_Q6P2Q9_2116_FICISDLR (UniProt Q6P2Q9) | 0.0375 | 0.149
29 | PRKDC_P78527_4106_CLMDQATDPNILGR (UniProt P78527) | -0.0751 | -0.265
30 | PRKDC_P78527_2093_EQRDPTVHDDVLELEMDELNRHECMAPLTALVK (UniProt P78527) | -0.167 | -0.16
31 | PRKAB2_O43741_225_DTNISCDPALLPEPNHVMLNHLYALSIK (UniProt O43741) | -0.0811 | 0.0742
32 | PRR14L_Q5THK1_1503_AQDPSSAGCDQIHGAFAK (UniProt Q5THK1) | -0.17 | -0.185
33 | PRKCD_Q05655_344_CNINNFIFHK (UniProt Q05655) | -0.153 | -0.132
34 | PRPF6_O94906_739_KCPHSTPLWLLLSR (UniProt O94906) | -0.015 | -0.433
35 | PRKDC_P78527_795_DILPCLDGYLK (UniProt P78527) | 0.126 | 0.125
36 | PRR3_P79522_161_SDRPVCR (UniProt P79522) | 0.0127 | -0.141
37 | PRRC2A_P48634_437_GGPPCKPPAPEDEDEAWR (UniProt P48634) | -0.12 | -0.301
38 | PRKDC_P78527_3837_APPCEYK (UniProt P78527) | 0.02 | -0.0417
39 | PRPF6_O94906_913_HGELWCAVSK (UniProt O94906) | 0.125 | 0.0547
40 | PRR14L_Q5THK1_228_DLSAGCGEFQEVDK (UniProt Q5THK1) | 0.116 | -0.072

Row | Target | probe-labelled cysteine peptide fold change (10 µM) | probe-labelled cysteine peptide fold change (50 µM)
41 | PRKDC_P78527_491_ICSKPVVLPK (UniProt P78527) | 0.0423 | 0.103
42 | PRPS1_P60891_165_NCTIVSPDAGGAK (UniProt P60891) | -0.0609 | 0.152
43 | PRPF8_Q6P2Q9_2223_TIIITCSFTPGSCTLTAYK (UniProt Q6P2Q9) | 0.0406 | 0.404
44 | PRSS12_P56730_349_CTGNELSIEQCPK (UniProt P56730) | 0.0294 | -0.0566
45 | PRKDC_P78527_974_LACDVDQVTR (UniProt P78527) | 0.122 | 0.195
46 | PRKAR2B_P31323_116_RASVCAEAYNPDEEEDDAESR (UniProt P31323) | 0.0279 | -0.142
47 | PRKAA1_Q13131_141_LFQQILSGVDYCHR (UniProt Q13131) | 0.0881 | 0.0662
48 | PRKCI_P41743_507_LGCHPQTGFADIQGHPFFR (UniProt P41743) | -0.0123 | 0.0437
49 | PRKDC_P78527_3187_CFFLSK (UniProt P78527) | -0.115 | -0.109
50 | PRMT6_Q96LA8_100_TVLDVGAGTGILSIFCAQAGAR (UniProt Q96LA8) | -0.0299 | 0.19
51 | PREX1_Q8TCU6_836_LSLCEDSPMVTLTVDNVHLEHGVVYEYVSTAGVR (UniProt Q8TCU6) | 0.0685 | -0.0133
52 | PRMT9_Q6P2P2_310_VIPASAVIFGMAVECAEIR (UniProt Q6P2P2) | 0.371 | -0.00639
53 | PRKDC_P78527_3001_DFWELASLDCYNHLAEWK (UniProt P78527) | 0.0402 | 0.0411
54 | PRPF4_O43172_431_EIYGINFSPNGYHIATGSGDNTCK (UniProt O43172) | 0.135 | -0.00403
55 | PRKCB_P05771_143_CVMNVPSLCGTDHTER (UniProt P05771) | 0.00113 | -0.0156
56 | PRKDC_P78527_3683_ECSPWMSDFK (UniProt P78527) | 0.0403 | -0.0803
57 | PRKCB_P05771_586_LGCGPEGER (UniProt P05771) | 0.0634 | 0.0851
58 | PRPF40A_O75400_580_EDALICFEEHIR (UniProt O75400) | 0.133 | 0.0442
59 | PRPF6_O94906_807_ALQECPNSGILWSEAIFLEAR (UniProt O94906) | 0.0338 | 0.255
60 | PRKAR1A_P10644_18_SLRECELYVQK (UniProt P10644) | -0.229 | -0.353
